Data reported in paper PMC6189209.
These are yes or no findings as the source states them, for the method shown. Binding seen in cells or lysates may run through a third protein. A yes stands for co-enrichment or nearness to the bait. Other partners may have been found. For part of these data: A no says only that the protein was not detected with the bait.

Sequences of proteins named here, by UniProt entry; tags and fusion partners are left off.
UniProt Q9UM07: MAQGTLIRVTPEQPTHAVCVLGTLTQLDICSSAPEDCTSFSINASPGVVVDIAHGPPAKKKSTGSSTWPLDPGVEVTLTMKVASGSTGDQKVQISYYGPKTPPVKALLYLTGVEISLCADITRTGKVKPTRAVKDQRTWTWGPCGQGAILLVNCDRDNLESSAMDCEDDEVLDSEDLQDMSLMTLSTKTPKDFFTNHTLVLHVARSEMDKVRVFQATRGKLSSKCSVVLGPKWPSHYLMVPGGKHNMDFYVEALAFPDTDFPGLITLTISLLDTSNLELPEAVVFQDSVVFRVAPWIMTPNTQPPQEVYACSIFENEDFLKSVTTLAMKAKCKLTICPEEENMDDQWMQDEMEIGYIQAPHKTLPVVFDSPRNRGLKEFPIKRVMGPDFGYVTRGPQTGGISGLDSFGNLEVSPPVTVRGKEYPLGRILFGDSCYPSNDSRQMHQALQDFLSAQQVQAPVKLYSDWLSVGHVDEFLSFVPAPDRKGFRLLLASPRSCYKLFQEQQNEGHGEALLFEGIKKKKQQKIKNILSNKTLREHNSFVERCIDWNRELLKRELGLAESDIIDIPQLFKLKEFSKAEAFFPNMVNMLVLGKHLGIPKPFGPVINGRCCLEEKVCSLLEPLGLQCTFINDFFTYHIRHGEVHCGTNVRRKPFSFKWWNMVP
UniProt P14598: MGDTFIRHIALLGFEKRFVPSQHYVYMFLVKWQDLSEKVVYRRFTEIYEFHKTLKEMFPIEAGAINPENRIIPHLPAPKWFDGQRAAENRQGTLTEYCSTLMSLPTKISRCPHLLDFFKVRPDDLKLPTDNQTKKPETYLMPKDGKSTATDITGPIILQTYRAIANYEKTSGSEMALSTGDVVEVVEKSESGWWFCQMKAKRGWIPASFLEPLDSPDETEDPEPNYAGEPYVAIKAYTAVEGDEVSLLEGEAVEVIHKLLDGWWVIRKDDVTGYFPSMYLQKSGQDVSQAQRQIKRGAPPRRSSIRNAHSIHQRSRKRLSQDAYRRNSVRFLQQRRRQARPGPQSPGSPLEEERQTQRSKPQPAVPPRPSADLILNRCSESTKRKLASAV
UniProt P19878: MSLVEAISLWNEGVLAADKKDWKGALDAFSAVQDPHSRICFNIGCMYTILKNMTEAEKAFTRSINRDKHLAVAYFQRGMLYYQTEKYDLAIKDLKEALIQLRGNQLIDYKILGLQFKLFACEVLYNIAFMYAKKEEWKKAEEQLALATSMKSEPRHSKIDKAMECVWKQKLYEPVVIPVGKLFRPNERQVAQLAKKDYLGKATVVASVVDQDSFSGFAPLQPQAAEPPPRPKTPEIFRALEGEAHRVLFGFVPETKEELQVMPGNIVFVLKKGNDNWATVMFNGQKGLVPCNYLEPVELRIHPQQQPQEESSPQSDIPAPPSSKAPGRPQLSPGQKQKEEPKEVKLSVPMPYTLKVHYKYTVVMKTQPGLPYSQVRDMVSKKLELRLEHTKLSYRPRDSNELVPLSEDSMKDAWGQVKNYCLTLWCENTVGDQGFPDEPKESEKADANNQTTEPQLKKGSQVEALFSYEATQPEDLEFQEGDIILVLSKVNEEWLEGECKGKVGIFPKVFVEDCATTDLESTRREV

Assays:
[1] = target: protein arginine deiminase 4 (PAD4) (human (endogenous in neutrophils)) (UniProt Q9UM07); experiment: affinity purification with mass spectrometry; anti-PAD4 immunoprecipitates from resting or PMA-treated neutrophils; TMT-labelled peptides, LC-MS/MS
[2] = target: protein arginine deiminase 4 (PAD4) (human (endogenous in neutrophils)) (UniProt Q9UM07); experiment: affinity purification with mass spectrometry; anti-PAD4 immunoprecipitates from ionomycin-treated neutrophils; TMT-labelled peptides, LC-MS/MS

| binding [1] | Substance | binding [2] |
| --- | --- | --- |
| binds | p47^phox (neutrophil cytosol factor 1, NCF1) (from UniProt P14598 1-390) | no binding (only neutrophils treated with ionomycin) |
| binds | p67^phox (neutrophil cytosol factor 2, NCF2) (from UniProt P19878 1-526) | – |
